Results are given in words; binding and its absence hold for the method and conditions named. Binding seen in cells or lysates may run through a third protein. These calls come from enrichment with a bait or labelling near it, and not all partners need be listed. Sequences can lack the tags named with a protein.
T1: MED17 fused to GFP (Mediator subunit 17, Arabidopsis) (A. thaliana), F4K460
T1 chain: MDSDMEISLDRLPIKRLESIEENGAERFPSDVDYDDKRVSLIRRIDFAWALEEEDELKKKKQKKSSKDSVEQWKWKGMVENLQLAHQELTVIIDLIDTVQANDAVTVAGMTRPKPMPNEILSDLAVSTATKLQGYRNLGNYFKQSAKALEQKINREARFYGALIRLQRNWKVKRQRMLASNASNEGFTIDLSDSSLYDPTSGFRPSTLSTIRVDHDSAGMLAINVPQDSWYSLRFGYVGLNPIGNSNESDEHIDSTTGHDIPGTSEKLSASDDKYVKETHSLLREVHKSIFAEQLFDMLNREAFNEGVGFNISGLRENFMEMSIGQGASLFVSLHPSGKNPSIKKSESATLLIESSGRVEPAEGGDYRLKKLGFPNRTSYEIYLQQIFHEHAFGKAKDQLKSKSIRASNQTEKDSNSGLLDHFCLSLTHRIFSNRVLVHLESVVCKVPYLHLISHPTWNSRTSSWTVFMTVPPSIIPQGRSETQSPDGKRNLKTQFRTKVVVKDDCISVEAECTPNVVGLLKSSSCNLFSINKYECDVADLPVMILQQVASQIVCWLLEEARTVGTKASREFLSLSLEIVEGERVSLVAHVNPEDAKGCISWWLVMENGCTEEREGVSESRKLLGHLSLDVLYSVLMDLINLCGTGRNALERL

The chains behind the UniProt entries cited, without tags or fusion partners. Residues count along the entry.
UniProt Q39043, residues 24-668: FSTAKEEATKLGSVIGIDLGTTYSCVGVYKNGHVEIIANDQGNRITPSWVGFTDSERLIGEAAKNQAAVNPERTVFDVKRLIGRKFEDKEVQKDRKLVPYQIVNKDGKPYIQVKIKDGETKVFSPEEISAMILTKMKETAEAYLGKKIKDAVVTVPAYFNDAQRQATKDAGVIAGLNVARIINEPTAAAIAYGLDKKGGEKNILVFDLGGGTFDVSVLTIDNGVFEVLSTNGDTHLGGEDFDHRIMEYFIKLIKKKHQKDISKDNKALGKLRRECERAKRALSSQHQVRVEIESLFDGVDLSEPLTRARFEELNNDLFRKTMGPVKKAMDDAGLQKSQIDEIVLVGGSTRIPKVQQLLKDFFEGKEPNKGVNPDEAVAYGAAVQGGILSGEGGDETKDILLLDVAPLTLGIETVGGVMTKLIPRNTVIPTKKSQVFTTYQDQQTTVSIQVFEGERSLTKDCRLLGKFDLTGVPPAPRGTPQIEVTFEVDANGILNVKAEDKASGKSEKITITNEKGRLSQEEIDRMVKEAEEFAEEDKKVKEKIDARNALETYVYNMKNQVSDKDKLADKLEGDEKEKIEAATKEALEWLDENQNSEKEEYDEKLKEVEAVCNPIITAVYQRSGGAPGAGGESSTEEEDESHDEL
UniProt Q94K07: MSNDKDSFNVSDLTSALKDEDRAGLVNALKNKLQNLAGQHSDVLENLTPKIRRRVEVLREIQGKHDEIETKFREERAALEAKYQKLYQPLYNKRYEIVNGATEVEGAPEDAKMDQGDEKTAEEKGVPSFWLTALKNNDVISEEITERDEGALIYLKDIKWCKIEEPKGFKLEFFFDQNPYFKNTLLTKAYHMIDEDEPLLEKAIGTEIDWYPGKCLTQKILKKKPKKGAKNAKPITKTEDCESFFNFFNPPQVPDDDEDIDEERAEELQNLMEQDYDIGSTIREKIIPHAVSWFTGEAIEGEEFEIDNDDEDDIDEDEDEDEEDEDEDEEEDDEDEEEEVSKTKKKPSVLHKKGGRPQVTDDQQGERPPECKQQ
UniProt Q93ZX1: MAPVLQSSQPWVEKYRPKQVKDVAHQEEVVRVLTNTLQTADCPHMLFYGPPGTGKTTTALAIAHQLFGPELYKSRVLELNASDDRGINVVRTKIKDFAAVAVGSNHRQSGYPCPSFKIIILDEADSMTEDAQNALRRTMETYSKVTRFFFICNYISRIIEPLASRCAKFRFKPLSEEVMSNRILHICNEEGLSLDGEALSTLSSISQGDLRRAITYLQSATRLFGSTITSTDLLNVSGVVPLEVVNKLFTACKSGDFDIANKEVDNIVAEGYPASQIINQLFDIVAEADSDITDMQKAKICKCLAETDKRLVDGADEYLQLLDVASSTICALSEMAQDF

T2: MED17 fused to GFP (Mediator subunit 17, Arabidopsis) (A. thaliana) (UniProt F4K460)
T2 sequence: T1 chain

B1: MED8, Q4V3C1 1-524 (protein)
chain: METQPQQPPPPPVAEKLNPKLEKELNLESLKTRAVSLAKAIARILEDFDAYGRTNTTPKWQDILGQYSMVNLELFNIVEEVKRVSNAFVVLPKNVNAMNAAILPVMLSSKLLPEMETDDNAKREQLLQGVQSLPIPMQIERLKARMDMIAAACENAERVLADTRKAYGFGTRQGPSMLPTMDKGQAAKIQEQEKMLRDAVNDGKGTQLPPDQRQITTALPPHLADVLIINDAGKIALPGQSNNINNQGMMQVSGTQFVGRSAASPSGPNFDNTTSPLPYSNSPRATGMVNVPSPQHQIQQQQFQQQQQRSKLMQLPQHQQQQLLAQQQQQLRQSSMQGLGQSQIPALHDMHGQAQQKFQTSHGQHQMPYSQPMGAHQQFQARQLSGGHIQHSMSQGQLNPAMNRHLNQFSGGANSALFTSAQGSPSSQMIPNMSSMQSQTLVPRMQQFGVSGTNPQRSHSSQMLGDQMFNTSGMMQTQQTQIQQSQQQQQQQQQGGYGNMQTNQQSLQPNNMMQNAQQRHQNPQ
B2: sister chromatid cohesion 1 protein 4 (protein, UniProt Q8W1Y0 1-1031)
chain: MFYSQFILAKKGPLGTIWIAAHLERKLRKNQVADTDIGVSVDSILFPEAPIALRLSSHLLLGVVRIYSRKVNYLFDDCSEALLKVKQAFRSAAVDLPPEESTAPYHSITLPETFDLDDFELPDNEIFQGNYVDHHVSTKEQITLQDTMDGVVYSTSQFGLDERFGDGDTSQAALDLDEAVFQDKDVIGSDDEGVPGIDHNAYLDAAAPGIKDSMEGVSEAMPMDFNEEQVEDLAMNNEFIEDAQAPQTPGLVEVPNSSSVREQMACDDHMDVEDLNAEEGIKSSGELNANEMPKRGEDLSSEYNAPESAVTPVEVDKSQIDENVNTQNEPEEERAEHVHVTSPCCSHITTEMEDPGQVMNEAGANVVPDKPDAVPPLETPGEENRDHFAIATEVNQETDSSLQGDEQAYSRPDGQLNNAHETDEQLGNLTGFTDSDFPPPEKVLAVPNRQGDGNDFMVESTPDKEDPGTCNDDAGNNNITGKKRTFTESTLTAESLNSVESVGLIQSKRTADSVPDDDDLLSSILVGKSSFLKMRPTPVLEPATTKRLRSAPRSTATKRKVLMDDPMVLHGDIIRQQLTNTEDIRRVRKKAPCTVPEIVMLQRQALEDGLFKEPIFTGMSVELVSLHTEPYDLRGIMIIENDDRHASVGAVEDNECSVTAVEENKTEESSDPQAHPNDCEEQPGTAHTHPQEEQTINQQEELKDDNELAEKSDLEVLKEGNGAADEVNLVVIDDVSQIPSEEKLDRVEDLQVEESHENHDGEGGQDVCADPNEKSCTDVIEIAEGDTDINPIFNEMDLKVEDELPHEDEKTDASAEVSELGRDDQTPCDNTVGSTETGCLEAGDLSNMALENCNEPLVEANSDGLNPETESYNKYEPHNEMSNEEASMQNALDGEHTSRDGLMGDNDEMDTMENAHDTGFLNVDDDEVDEDHEEDDIQYDDETRLLENSGWSSRTRAVAKYLQTLFDKETENGKNVLVADKLLAGKTRKEASRMFFETLVLKTRDYIQVEQGKPYESIIIKPRPKLTKSIF
B3: transcription initiation factor TFIID subunit 9 (protein, UniProt Q9SYH2 1-183)
chain: MAGEGEEDVPRDAKIVKSLLKSMGVEDYEPRVIHQFLELWYRYVVEVLTDAQVYSEHASKPNIDCDDVKLAIQSKVNFSFSQPPPREVLLELAASRNKIPLPKSIAGPGVPLPPEQDTLLSPNYQLVIPKKSVSTEPEETEDDEEMTDPGQSSQEQQQQQQQTSDLPSQTPQRVSFPLSRRPK
B4: cell division cycle 5-like protein (CDC5) (protein, UniProt P92948 1-844)
chain: MRIMIKGGVWKNTEDEILKAAVMKYGKNQWARISSLLVRKSAKQCKARWYEWLDPSIKKTEWTREEDEKLLHLAKLLPTQWRTIAPIVGRTPSQCLERYEKLLDAACTKDENYDAADDPRKLRPGEIDPNPEAKPARPDPVDMDEDEKEMLSEARARLANTRGKKAKRKAREKQLEEARRLASLQKRRELKAAGIDGRHRKRKRKGIDYNAEIPFEKRAPAGFYDTADEDRPADQVKFPTTIEELEGKRRADVEAHLRKQDVARNKIAQRQDAPAAILQANKLNDPEVVRKRSKLMLPPPQISDHELEEIAKMGYASDLLAENEELTEGSAATRALLANYSQTPRQGMTPMRTPQRTPAGKGDAIMMEAENLARLRDSQTPLLGGENPELHPSDFTGVTPRKKEIQTPNPMLTPSMTPGGAGLTPRIGLTPSRDGSSFSMTPKGTPFRDELHINEDMDMHESAKLERQRREEARRSLRSGLTGLPQPKNEYQIVAQPPPEESEEPEEKIEEDMSDRIAREKAEEEARQQALLKKRSKVLQRDLPRPPAASLAVIRNSLLSADGDKSSVVPPTPIEVADKMVREELLQLLEHDNAKYPLDDKAEKKKGAKNRTNRSASQVLAIDDFDENELQEADKMIKEEGKFLCVSMGHENKTLDDFVEAHNTCVNDLMYFPTRSAYELSSVAGNADKVAAFQEEMENVRKKMEEDEKKAEHMKAKYKTYTKGHERRAETVWTQIEATLKQAEIGGTEVECFKALKRQEEMAASFRKKNLQEEVIKQKETESKLQTRYGNMLAMVEKAEEIMVGFRAQALKKQEDVEDSHKLKEAKLATGEEEDIAIAMEASA
B5: histone chaperone NRP 1 (protein, UniProt Q9CA59 1-256)
chain: MVADKSKKSKIEEKGEEENLEQIDAELVLSIEKLQEIQDDLEKINEKASDEVLEVEQKYNVIRKPVYDKRNEVIQSIPGFWMTAFLSHPALGDLLTEEDQKIFKYLNSLEVEDAKDVKSGYSITFHFTSNPFFEDAKLTKTFTFLEEGTTKITATPIKWKEGKGLPNGVNHDDKKGNKRALPEESFFTWFTDAQHKEDAGDEIHDEVADIIKEDLWSNPLTYFNNDADEEDFDGDDDGDEEGEEDDDDEEEEDGEE
B6: histone chaperone NRP 2 (protein, UniProt Q8LC68 1-255)
chain: MVTDKSKKAKTEEENVEQIDAELVLSIEKLQEIQDDLEKINEKASDEVLEVEQKYNVIRKPVYDKRNEIIKTIPDFWLTAFLSHPALGELLTEEDQKIFKYLSSLDVEDAKDVKSGYSITFSFNPNPFFEDGKLTKTFTFLEEGTTKITATPIKWKEGKGLANGVNHEKNGNKRALPEESFFTWFSDAQHKEDVEDEMQDEVADIIKEDLWPNPLTYFNNDADEEDFDGDDDGDEEEKEGDSDEDDDEEDEVGEE

Biological target: T1, MED17 fused to GFP (Mediator subunit …)
Assay: affinity purification with mass spectrometry
Conditions: remark: other sources report otherwise

binding, binds:
B1

Biological target: T2, MED17 fused to GFP (Mediator subunit 17, Arabidopsis) (A. thaliana)
Assay: affinity purification with mass spectrometry
Conditions: not given

binding, binds:
DNA repair ATPase-related protein
MED37 A/B
MED37 F (from UniProt Q39043 24-668)
histone chaperone NAP 1; 3 (from UniProt Q94K07 1-374)
replication factor C subunit 4 (from UniProt Q93ZX1 1-339)
transcription initiation factor IIE subunit alpha
B2
B3
B4
B5
B6
